In PubChem BioAssay AID1508600 (Functional Genomics Laboratory (NCATS/FGL), 2020):
In all, about 53,000 sequences went through this assay and about 3,700 (7%) were called active.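 The calls were made as follows: active = gene knockdowns whose robust z-score for IL-1 alpha signal is at least 2 or at most -2, so actives lie on both sides; inactive = the rest.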 The list shows a part of the results.

Assay: Components of the Cytosolic LPS Sensing Pathway: Gene Identification via Genome-wide siRNA Screen;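 also: robust z of the log signal after scaling to non-targeting control siRNA wells of the plate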
Details: RAW264.7 macrophages, IL-1a HTRF, actives lie on both sides, screened at 100 nM (by protocol), cells primed 5 h with Pam3CSK4 first
Summary of the method: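 IL-1a HTRF of supernatants after 24 hour LipidA transfection of Pam3CSK4-primed (5 hours) RAW264.7 cells, 48h post-siRNA transfection (100 nM). Scores: percent of plate negative-control median, then log-based robust z-score.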

z-score, active:
GCAAAGGCCAAAUAUGAGGTT against Dbil5 -2.71
GGGUUUUCUUGUGUGAAAATT against Pomp -2.93

z-score, inactive:
CCAUGAUGAUAAUCUGAAUTT against Wdr25 0.437
GGUCUUUUUCUCUUUGCAUTT against Pcdh10 0.512
GGGAUUGAUUUCAACAAUGTT against Vmn1r33 0.464
GGACCUUGGAUAUAAAGGUTT against Slc25a44 0.14
GCUGAAUGGUCUUGUUACATT against Zfp658 1.4
GGAGAAUGUGGCUUCCUGATT against Clec2h 0.224
CGCAUUUCAUCGAAUGGAATT against Nlgn2 -0.172
GGCAACGGUGAAACUAGACTT against Sh3bp5 1.21
GGUUUAUUUCCAAAGUUGATT against Rab3gap1 0.54
GGCUCAGUCUCAGGUGUUCTT against Calhm6 1.71
GCCAUGGGUCUCAGAAAGATT against Zxda -0.247
GGAACUAGAAGGUGUUUUATT against Ythdf1 0.41
CCUUGGAACCUUUAGUUAATT against Rnf181 -0.626
GCUGAUGUUAAAUUCGCAGTT against Serpinb3b 1.33
GGCCUUUGCUCUAAACAGCTT against Rdm1 0.812
GAGAUGGAUGGAAAAAAAATT against Klk1b7-ps -1.52
GGAAGGACAUAUUAUCUUGTT against Mga -0.141
AGACUGUAAAAGUCUUGUCTT against Ftl2-ps 0.0707
GGGCAACGAGCUGUUCAAATT against Unc45a 1.71
GGUGAGAUUACUGAAAGAATT against Plod2 -0.0899
CCAAUAAUGGAAGAACCUCTT against Zzz3 -0.64
GGAUGUACCCUUAAUAAACTT against Gabra5 0.766
GAAUGUCAGAACCAUCCUCTT against Cdc34 -0.449
GCCUUCGAUAAAGUUUUCCTT against Sult2a2 0.426
CCUGAAAGAAAAGAAGGACTT against Ptms 0.107
GCAGAUGAGAGGAUCCUUATT against Nfatc2 0.192
GGACGUAGAAAUGAAACCATT against Tdrd12 -1.53
GGAAAAGUUGGACUUUUAUTT against Wdr44 -0.53
GGAGAUCUUAGAGAAAUUATT against Pak1 -0.956
GGUUAUAAAAAACAACCUGTT against Cpne3 1.42
GGUUAAAACGAGCAACGUGTT against Trmt44 -0.484
GCCUUUAAGCAUGAUCCUGTT against Rrp1 -1.17
GGCAAAUUCUGGAUCUGCUTT against Marf1 -0.267
GUUGUUGCUGGACUUCUUGTT against Olfr1443 -1.17
GGUCUCAGAGUACAUUUCCTT against Pde4a -0.593
CGACGACUAGACCUCAUCUTT against Dtx4 -0.624
CGCACUUCAAGUUUAAUUGTT against Mmab -0.818
GGUGAAAUCAGAAUUUGCGTT against Defb23 0.453
GGUGUGGCUGUUCUGAUGATT against Olfr771 0.322
GGUGUUCAUGAGUGCUAUATT against Atg10 -0.172
GGACAGACGGUCUUCUAUATT against Znrd1 -0.322
GGAAUGACGUGGUGUAUCATT against Ccdc93 0.199
GGGAGAACCUGGCAUUCCUTT against Col23a1 0.422
CCACUAAAAUUGACAAUGATT against Plxna1 -1.66
GCUGCACUGACAUAGGAGUTT against Btnl2 -0.16
GGAAACUUACAAACUGCCGTT against Bhlhe40 1.25
CAUAAUCUGCACUACAAGCTT against Olfr309 -0.964
GGAAUCUGUGUAUAAUCUUTT against Dst 1.59
GGAGGUUUUCCGAAGUAUUTT against Pnpt1 1.2
GCGCGUCAUCUUCUGACUUTT against Mmgt2 1.45
GGAUUUAGAUCACUUGGAGTT against Tmem68 -0.811
GGAUAUCCUUUCAAUAGAATT against Mcf2 -0.225
GGUAUUUACCAUUAGCAGGTT against Tmem229b 0.76
GGCUGUAGUCAUAAGCACUTT against Ppp1r11 0.316
GGAGAAAUCCGUCUGACCATT against Pcdhb12 0.137
GGUGUACAGCUGUGACCUGTT against Chn1 -0.387
CGACUCAACUUCUCCCAUGTT against Pklr -1.93
CCCAACCUCAAUGAAACUATT against Arfip2 -0.369
GGAAAUUGAUAAAGACAGATT against Fam204a -0.165
GCUGCAUGAAGGUGCUAAATT against Pcmt1 1
GGAUACACAAACCAAAAGUTT against Ccdc90b 0.265
GGAAUUGCUGAGGCACUUCTT against Nfkbia -0.0809
GGAACAAUCACUCUUUGGCTT against Olfr123 0.151
GGCCACUAUAACUGAUCCGTT against Tlcd4 0.461
GGCUAUGAUGAUUAUAAUGTT against Hnrnph1 0.724
GGUGGUUUUGCUUUCUGUCTT against Tmem229a 0.522

5 consecutive records out of the list so far, quoted:
z-score, inactive:
GCGCGUCAUCUUCUGACUUTT against Mmgt2 1.45
GGAUUUAGAUCACUUGGAGTT against Tmem68 -0.811
GGAUAUCCUUUCAAUAGAATT against Mcf2 -0.225
GGUAUUUACCAUUAGCAGGTT against Tmem229b 0.76
GGCUGUAGUCAUAAGCACUTT against Ppp1r11 0.316
